Experimental data from the supplement of paper PMC10849652.
The list shows a part of the results.

Sequences of proteins named here, by UniProt entry; tags and fusion partners are left off. A change or cut given only in a name is not applied to a line headed by its entry.
UniProt Q6UUV9: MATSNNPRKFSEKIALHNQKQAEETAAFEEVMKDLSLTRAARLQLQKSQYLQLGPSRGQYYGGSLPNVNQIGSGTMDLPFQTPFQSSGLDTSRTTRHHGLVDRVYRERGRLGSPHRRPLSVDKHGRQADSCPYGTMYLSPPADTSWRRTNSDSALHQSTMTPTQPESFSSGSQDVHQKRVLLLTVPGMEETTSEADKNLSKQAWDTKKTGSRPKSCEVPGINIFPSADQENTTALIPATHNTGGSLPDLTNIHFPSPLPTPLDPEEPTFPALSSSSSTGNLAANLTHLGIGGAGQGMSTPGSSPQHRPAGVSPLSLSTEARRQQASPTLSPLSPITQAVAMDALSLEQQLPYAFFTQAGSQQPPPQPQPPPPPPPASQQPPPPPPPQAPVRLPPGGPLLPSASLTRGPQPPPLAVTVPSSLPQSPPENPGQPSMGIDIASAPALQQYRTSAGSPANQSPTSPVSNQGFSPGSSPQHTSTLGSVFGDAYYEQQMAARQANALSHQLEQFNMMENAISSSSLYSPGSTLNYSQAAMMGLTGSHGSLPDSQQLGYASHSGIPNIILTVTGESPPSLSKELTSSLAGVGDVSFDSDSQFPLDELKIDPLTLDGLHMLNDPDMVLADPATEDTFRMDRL
UniProt P41240: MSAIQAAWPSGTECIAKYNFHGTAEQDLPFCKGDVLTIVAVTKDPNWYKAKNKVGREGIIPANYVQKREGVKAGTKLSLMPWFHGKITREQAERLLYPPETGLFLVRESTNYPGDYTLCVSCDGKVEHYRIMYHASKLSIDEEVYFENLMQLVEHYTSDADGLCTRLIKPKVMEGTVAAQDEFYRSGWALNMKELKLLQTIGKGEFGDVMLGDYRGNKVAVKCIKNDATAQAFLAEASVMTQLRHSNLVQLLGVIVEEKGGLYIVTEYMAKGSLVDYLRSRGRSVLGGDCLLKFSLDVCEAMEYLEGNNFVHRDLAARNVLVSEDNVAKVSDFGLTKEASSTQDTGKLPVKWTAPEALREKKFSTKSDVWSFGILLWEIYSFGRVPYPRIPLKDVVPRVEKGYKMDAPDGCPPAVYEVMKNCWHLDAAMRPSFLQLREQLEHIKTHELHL
UniProt Q9UNS2: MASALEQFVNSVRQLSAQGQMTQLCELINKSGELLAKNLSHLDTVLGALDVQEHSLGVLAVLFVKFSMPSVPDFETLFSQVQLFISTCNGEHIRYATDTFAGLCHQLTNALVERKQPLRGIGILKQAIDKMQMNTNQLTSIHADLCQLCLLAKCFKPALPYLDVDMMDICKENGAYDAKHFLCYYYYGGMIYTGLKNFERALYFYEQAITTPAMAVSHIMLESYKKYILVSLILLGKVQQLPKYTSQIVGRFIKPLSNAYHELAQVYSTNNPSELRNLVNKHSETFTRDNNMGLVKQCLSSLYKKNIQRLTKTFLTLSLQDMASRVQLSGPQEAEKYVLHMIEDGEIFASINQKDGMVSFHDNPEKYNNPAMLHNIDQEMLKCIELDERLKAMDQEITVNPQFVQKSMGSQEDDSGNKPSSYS
UniProt P23786: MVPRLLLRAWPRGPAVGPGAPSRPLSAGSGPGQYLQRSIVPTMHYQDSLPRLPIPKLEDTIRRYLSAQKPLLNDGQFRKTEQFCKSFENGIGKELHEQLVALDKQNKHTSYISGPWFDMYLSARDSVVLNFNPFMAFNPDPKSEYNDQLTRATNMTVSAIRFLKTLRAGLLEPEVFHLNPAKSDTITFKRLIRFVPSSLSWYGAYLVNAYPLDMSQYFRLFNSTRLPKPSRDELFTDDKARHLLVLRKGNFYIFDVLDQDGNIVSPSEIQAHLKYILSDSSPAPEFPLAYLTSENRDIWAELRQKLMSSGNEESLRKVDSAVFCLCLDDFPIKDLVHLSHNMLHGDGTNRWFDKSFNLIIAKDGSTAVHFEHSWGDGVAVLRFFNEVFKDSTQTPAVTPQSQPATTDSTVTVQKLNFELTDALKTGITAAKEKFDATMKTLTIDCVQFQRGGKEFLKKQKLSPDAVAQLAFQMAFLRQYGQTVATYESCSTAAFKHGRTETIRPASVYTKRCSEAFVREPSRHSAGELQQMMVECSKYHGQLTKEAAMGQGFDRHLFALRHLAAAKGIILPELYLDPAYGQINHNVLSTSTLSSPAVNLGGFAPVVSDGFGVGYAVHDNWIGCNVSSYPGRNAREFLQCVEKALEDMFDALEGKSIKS
UniProt P78368: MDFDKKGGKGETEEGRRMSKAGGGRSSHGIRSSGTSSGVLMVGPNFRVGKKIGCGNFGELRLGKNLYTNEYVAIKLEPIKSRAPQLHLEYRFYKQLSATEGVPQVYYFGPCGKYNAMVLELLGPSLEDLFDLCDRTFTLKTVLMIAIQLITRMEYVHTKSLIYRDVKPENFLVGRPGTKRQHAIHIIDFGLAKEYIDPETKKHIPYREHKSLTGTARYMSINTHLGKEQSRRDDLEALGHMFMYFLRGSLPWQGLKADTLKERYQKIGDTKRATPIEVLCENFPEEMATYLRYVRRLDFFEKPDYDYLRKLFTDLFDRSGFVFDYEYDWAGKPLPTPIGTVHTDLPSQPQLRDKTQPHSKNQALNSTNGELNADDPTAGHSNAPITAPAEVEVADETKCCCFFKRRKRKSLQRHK
UniProt P46108: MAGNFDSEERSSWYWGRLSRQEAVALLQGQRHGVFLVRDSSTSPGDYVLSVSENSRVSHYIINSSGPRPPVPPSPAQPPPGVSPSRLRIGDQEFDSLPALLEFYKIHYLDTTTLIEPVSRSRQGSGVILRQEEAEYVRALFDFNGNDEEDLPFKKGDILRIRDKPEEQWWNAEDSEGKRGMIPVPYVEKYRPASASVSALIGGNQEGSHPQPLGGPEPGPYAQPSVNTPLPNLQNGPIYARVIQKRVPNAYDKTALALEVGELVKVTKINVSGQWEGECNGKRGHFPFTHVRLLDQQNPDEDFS
UniProt Q9UBI1, whole entry, looked up: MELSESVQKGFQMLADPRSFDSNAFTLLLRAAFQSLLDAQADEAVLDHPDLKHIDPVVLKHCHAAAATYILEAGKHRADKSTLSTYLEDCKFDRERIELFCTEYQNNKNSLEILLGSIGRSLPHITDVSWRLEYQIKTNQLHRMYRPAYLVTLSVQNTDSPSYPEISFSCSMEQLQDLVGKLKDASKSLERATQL
UniProt Q9HCP0: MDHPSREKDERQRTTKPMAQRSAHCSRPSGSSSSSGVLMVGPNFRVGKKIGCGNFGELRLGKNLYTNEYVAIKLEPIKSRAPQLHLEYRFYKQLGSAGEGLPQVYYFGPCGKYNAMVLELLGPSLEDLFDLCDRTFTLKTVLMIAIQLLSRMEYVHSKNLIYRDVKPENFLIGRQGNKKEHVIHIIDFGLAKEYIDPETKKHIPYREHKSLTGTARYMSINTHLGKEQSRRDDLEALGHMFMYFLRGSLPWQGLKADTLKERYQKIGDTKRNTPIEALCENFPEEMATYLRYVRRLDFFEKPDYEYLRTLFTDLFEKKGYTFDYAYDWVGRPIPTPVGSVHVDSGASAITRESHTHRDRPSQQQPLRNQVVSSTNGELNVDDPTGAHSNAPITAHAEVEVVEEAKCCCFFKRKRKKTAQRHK
UniProt P78560: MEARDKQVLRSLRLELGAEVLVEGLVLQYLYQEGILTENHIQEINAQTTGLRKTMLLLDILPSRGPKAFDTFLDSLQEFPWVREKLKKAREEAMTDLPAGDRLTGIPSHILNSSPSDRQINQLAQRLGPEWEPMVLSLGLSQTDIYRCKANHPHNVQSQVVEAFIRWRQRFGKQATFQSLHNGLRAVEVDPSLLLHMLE

Key:
Test in all cases: log2 fold change, soluble protein after heating vs DMSO (PISA); higher = thermal stabilisation; K562 cells, 10 uM, 30 min; active = over 0.2 and 3.5 SD of the protein, either way, in both replicates (recomputed)
[1] = compound: CS(=O)(=O)c1ccc(-c2cnc(N)c(C(=O)Nc3ccccc3)n2)cc1
In short: (§1)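 Quantification of soluble protein used TMTpro 16plex LC-MS/MS, with channel sums equalised. Samples were the supernatant after 21,000xg for 90 min of pooled aliquots from K562 cells (2×10^6 cells/mL) treated with 10 μM compound for 30 min, heated for 3 min over 48°C-58°C, and extracted in PBS with 0.5% NP-40 at 4°C. Values, from duplicates, describe thermal stability against control samples on a log2 fold-change scale.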

crizotinib = compound: C[C@@H](Oc1cc(-c2cnn(C3CCNCC3)c2)cnc1N)c1c(Cl)ccc(F)c1Cl [crizotinib]
In short: as §1

[2] = compound: C[C@@H]1COCCN1C2=NC(=NC(=C2)C3(CC3)S(=O)(=O)C)C4=C5C=CNC5=CC=C4
In short: as §1

gandotinib = compound: Cc1cc(Nc2cc(CN3CCOCC3)c3nc(C)c(Cc4ccc(Cl)cc4F)n3n2)n[nH]1 [gandotinib]
In short: as §1

[3] = compound: Cc1cc(SCc2sc(-c3ccc(C(F)(F)F)cc3)nc2C)ccc1OCC(=O)O
In short: as §1

doramapimod = compound: Cc1ccc(-n2nc(C(C)(C)C)cc2NC(=O)Nc2ccc(OCCN3CCOCC3)c3ccccc23)cc1 [doramapimod]
In short: as §1

ispinesib = compound: Cc1ccc(C(=O)N(CCCN)[C@@H](c2nc3cc(Cl)ccc3c(=O)n2Cc2ccccc2)C(C)C)cc1 [ispinesib]
In short: as §1

bafetinib = compound: Cc1ccc(NC(=O)c2ccc(CN3CC[C@H](N(C)C)C3)c(C(F)(F)F)c2)cc1Nc1nccc(-c2cncnc2)n1 [bafetinib]
In short: as §1

[4] = compound: Cc1cccc(CC(=O)N2CCc3c2ccc(-c2cn(C)c4ncnc(N)c24)c3F)n1
In short: as §1

dasatinib = compound: Cc1nc(Nc2ncc(C(=O)Nc3c(C)cccc3Cl)s2)cc(N2CCN(CCO)CC2)n1 [dasatinib]
In short: as §1

[5] = compound: Cn1cc(-c2ccc3nnc(C(F)(F)c4ccc5ncccc5c4)n3n2)cn1
In short: as §1

tipifarnib = compound: Cn1cncc1[C@@](N)(c1ccc(Cl)cc1)c1ccc2c(c1)c(-c1cccc(Cl)c1)cc(=O)n2C [tipifarnib]
In short: as §1

[6] = compound: C[C@H](C1=CC=C(C=C1)C(=O)NC2=C3C=CNC3=NC=C2)N
In short: as §1

nilotinib = compound: Cc1cn(-c2cc(NC(=O)c3ccc(C)c(Nc4nccc(-c5cccnc5)n4)c3)cc(C(F)(F)F)c2)cn1 [nilotinib]
In short: as §1

[7] = compound: Cc1nc(Nc2n[nH]c3c2CN(C(=O)N[C@H](CN(C)C)c2ccccc2)C3(C)C)c2sccc2n1
In short: as §1

[8] = compound: Cc1ncc(-c2ccnc(Nc3ccc(S(C)(=O)=O)cc3)n2)n1C(C)C
In short: as §1

[9] = compound: Cn1cc(-c2ccc3c(c2)CCN3C(=O)Cc2cccc(C(F)(F)F)c2)c2c(N)ncnc21
In short: as §1

mubritinib = compound: FC(F)(F)c1ccc(/C=C/c2nc(COc3ccc(CCCCn4ccnn4)cc3)co2)cc1 [mubritinib]
In short: as §1

tozasertib = compound: Cc1cc(Nc2cc(N3CCN(C)CC3)nc(Sc3ccc(NC(=O)C4CC4)cc3)n2)n[nH]1 [tozasertib]
In short: as §1

duvelisib = compound: C[C@H](Nc1ncnc2nc[nH]c12)c1cc2cccc(Cl)c2c(=O)n1-c1ccccc1 [duvelisib]
In short: as §1

CRTC1 isoform 2 (UniProt Q6UUV9)
log2 fold change [1]: inactive: -0.068
log2 fold change (crizotinib): inactive: -0.016
log2 fold change [2]: inactive: 0.192
log2 fold change (gandotinib): inactive: 0.008
log2 fold change [3]: inactive: -0.076
log2 fold change (doramapimod): inactive: 0.005
log2 fold change (ispinesib): inactive: -0.11
log2 fold change (bafetinib): inactive: 0.021
log2 fold change [4]: inactive: -0.093
log2 fold change (dasatinib): inactive: -0.034
log2 fold change [5]: inactive: -0.079
log2 fold change (tipifarnib): inactive: -0.267

CSK (UniProt P41240)
log2 fold change [1]: inactive: 0.082
log2 fold change (crizotinib): inactive: -0.033
log2 fold change [2]: inactive: 0.112
log2 fold change [6]: inactive: -0.004
log2 fold change (gandotinib): inactive: -0.018
log2 fold change [3]: inactive: 0.046
log2 fold change (doramapimod): inactive: 0.003
log2 fold change (ispinesib): inactive: -0.028
log2 fold change (bafetinib): inactive: 0.088
log2 fold change [4]: inactive: 0.019
log2 fold change (nilotinib): inactive: 0.126
log2 fold change [7]: inactive: -0.001
log2 fold change (dasatinib): inactive: 0.137
log2 fold change [8]: inactive: 0.017
log2 fold change [9]: inactive: 0.019
log2 fold change [5]: inactive: -0.031
log2 fold change (tipifarnib): inactive: -0.129
log2 fold change (mubritinib): inactive: 0.107

COPS3 (UniProt Q9UNS2)
log2 fold change [1]: inactive: 0.018
log2 fold change (crizotinib): inactive: 0.003
log2 fold change [2]: inactive: 0.047
log2 fold change [6]: inactive: -0.023
log2 fold change (gandotinib): inactive: -0.087
log2 fold change [3]: inactive: -0.006
log2 fold change (doramapimod): inactive: -0.015
log2 fold change (ispinesib): inactive: 0.024
log2 fold change (bafetinib): inactive: -0.05
log2 fold change [4]: inactive: -0.027
log2 fold change (nilotinib): inactive: 0.006
log2 fold change [7]: inactive: 0.004
log2 fold change (dasatinib): inactive: -0.02
log2 fold change [8]: inactive: -0.012
log2 fold change [9]: inactive: 0.014
log2 fold change [5]: inactive: 0.04
log2 fold change (tipifarnib): inactive: 0.004
log2 fold change (mubritinib): inactive: 0.023

CPT2 (UniProt P23786)
log2 fold change [1]: active: 0.701
log2 fold change (crizotinib): inactive: -0.42
log2 fold change [2]: inactive: 0.06
log2 fold change [6]: inactive: -0.01
log2 fold change (gandotinib): inactive: 0.119
log2 fold change [3]: active: 1.04
log2 fold change (doramapimod): inactive: -0.019
log2 fold change (ispinesib): inactive: -0.306
log2 fold change (bafetinib): inactive: -0.115
log2 fold change [4]: inactive: 0.008
log2 fold change (nilotinib): inactive: 0.096
log2 fold change [7]: inactive: -0.003
log2 fold change (dasatinib): inactive: 0.217
log2 fold change [8]: inactive: 0.047
log2 fold change [9]: inactive: 0.268
log2 fold change [5]: inactive: 0.265
log2 fold change (tipifarnib): inactive: -0.076
log2 fold change (mubritinib): active: 0.763

CSNK1G2 (UniProt P78368)
log2 fold change [1]: inactive: 0.121
log2 fold change (crizotinib): inactive: -0.203
log2 fold change [2]: inactive: -0.129
log2 fold change (gandotinib): inactive: 0.113
log2 fold change (tozasertib): inactive: 0.116
log2 fold change (doramapimod): inactive: 0.07
log2 fold change [4]: inactive: -0.058
log2 fold change (nilotinib): inactive: 0.014
log2 fold change [7]: inactive: -0.023
log2 fold change [8]: inactive: 0.062
log2 fold change (mubritinib): inactive: -0.006

CRK (UniProt P46108)
log2 fold change [1]: inactive: 0.043
log2 fold change (crizotinib): active: -1.02
log2 fold change [2]: inactive: 0.008
log2 fold change [6]: inactive: -0.064
log2 fold change (gandotinib): inactive: -0.096
log2 fold change [3]: inactive: 0.058
log2 fold change (doramapimod): inactive: 0.01
log2 fold change (ispinesib): inactive: -0.004
log2 fold change (bafetinib): active: -0.586
log2 fold change [4]: inactive: -0.02
log2 fold change (nilotinib): active: -0.826
log2 fold change [7]: inactive: -0.136
log2 fold change (dasatinib): active: -0.883
log2 fold change [8]: inactive: 0.036
log2 fold change [9]: inactive: -0.007
log2 fold change [5]: inactive: 0.03
log2 fold change (tipifarnib): inactive: 0.026
log2 fold change (mubritinib): inactive: 0.075

CS (UniProt F8VU34)
log2 fold change (bafetinib): inactive: 0.044

COMMD3 (UniProt Q9UBI1)
log2 fold change (crizotinib): inactive: -0.067
log2 fold change [6]: inactive: -0.019
log2 fold change (duvelisib): inactive: 0.047
log2 fold change (tozasertib): inactive: 0.292
log2 fold change [3]: inactive: 0.102
log2 fold change (doramapimod): inactive: 0.076
log2 fold change (ispinesib): inactive: 0.055
log2 fold change (bafetinib): inactive: -0.004
log2 fold change (nilotinib): inactive: -0.04
log2 fold change [7]: inactive: -0.11
log2 fold change (dasatinib): inactive: -0.036
log2 fold change [8]: inactive: 0.017
log2 fold change [9]: inactive: 0.056
log2 fold change [5]: inactive: -0.009
log2 fold change (tipifarnib): inactive: -0.221
log2 fold change (mubritinib): inactive: -0.113

CSNK1G1 (UniProt Q9HCP0)
log2 fold change [1]: inactive: 0.038
log2 fold change [2]: inactive: 0.063
log2 fold change (duvelisib): inactive: -0.174
log2 fold change [3]: inactive: 0.024
log2 fold change (ispinesib): inactive: -0.39
log2 fold change (bafetinib): inactive: 0.038
log2 fold change (nilotinib): inactive: 0.092
log2 fold change [7]: inactive: -0.455
log2 fold change (dasatinib): inactive: -0.023
log2 fold change [8]: inactive: -0.021
log2 fold change [5]: inactive: 0.018
log2 fold change (mubritinib): inactive: -0.037

CRADD (UniProt P78560)
log2 fold change (crizotinib): inactive: -0.169
log2 fold change [6]: inactive: 0.134
log2 fold change (tozasertib): inactive: 0.254
log2 fold change (doramapimod): inactive: 0.042
log2 fold change [9]: inactive: -0.033
